Test results taken from PMC3988174.
These are yes or no findings as the source states them, for the method shown. Some binding calls cover weakened binding; strength is not graded here.

Tests used:
[1] = target: atToc132 A- plus G-domains bait (Arabidopsis thaliana) (UniProt Q9SLF3); assay: two-hybrid; pairwise split-ubiquitin yeast two-hybrid of isolated NubG-preys with Toc159G, Toc132G or Toc132AG bait in NMY51; growth on SD-LWHA (3-AT) and quantitative β-Gal assay, activity relative to a reference bait set to 100%
[2] = target: atToc132 A- plus G-domains bait (Arabidopsis thaliana) (UniProt Q9SLF3); assay: two-hybrid; split-ubiquitin membrane-based yeast two-hybrid library screen in S. cerevisiae NMY51; bait fused to Cub-LexA-VP16 (pBT3-STE), Arabidopsis seedling cDNA library preys fused to NubG; selection on SD-LWHA with 3-AT; hits re-streaked, retransformed with the same bait, X-Gal filter assay

Binder	binding [1]	binding [2]
Light-Harvesting Chlorophyll-Protein Complex I Subunit A4 (protein, UniProt P27521 1-251) MATVTTHASASIFRPCTSKPRFLTGSSGRLNRDLSFTSIGSSAKTSSFKVEAKKGEWLPGLASPDYLTGSLAGDNGFDPLGLAEDPENLKWFVQAELVNGRWAMLGVAGMLLPEVFTKIGIINVPEWYDAGKEQYFASSSTLFVIEFILFHYVEIRRWQDIKNPGSVNQDPIFKQYSLPKGEVGYPGGIFNPLNFAPTQEAKEKELANGRLAMLAFLGFVVQHNVTGKGPFENLLQHLSDPWHNTIVQTFN	binds	binds
Lactoylglutathionelyase (protein, UniProt Q8H0V3 1-185) MASEARESPANNPGLSTNRDEATKGYIMQQTMFRIKDPKASLDFYSRVLGMSLLKRLDFSEMKFSLYFLGYEDTTTAPTDPTERTVWTFGQPATIELTHNWGTESDPEFKGYHNGNSEPRGFGHIGVTVDDVHKACERFEELGVEFAKKPNDGKMKNIAFIKDPDGYWIEIFDLKTIGTTTVNAA	binds	–
Fatty acid desaturase 6 (protein, UniProt P46312 1-448) MASRIADSLFAFTGPQQCLPRVPKLAASSARVSPGVYAVKPIDLLLKGRTHRSRRCVAPVKRRIGCIKAVAAPVAPPSADSAEDREQLAESYGFRQIGEDLPENVTLKDIMDTLPKEVFEIDDLKALKSVLISVTSYTLGLFMIAKSPWYLLPLAWAWTGTAITGFFVIGHDCAHKSFSKNKLVEDIVGTLAFLPLVYPYEPWRFKHDRHHAKTNMLVHDTAWQPVPPEEFESSPVMRKAIIFGYGPIRPWLSIAHWVNWHFNLKKFRASEVNRVKISLACVFAFMAVGWPLIVYKVGILGWVKFWLMPWLGYHFWMSTFTMVHHTAPHIPFKPADEWNAAQAQLNGTVHCDYPSWIEILCHDINVHIPHHISPRIPSYNLRAAHESIQENWGKYTNLATWNWRLMKTIMTVCHVYDKEENYIPFDRLAPEESQPITFLKKAMPNYTA	binds	–
Geranylgeranyl reductase (protein, UniProt Q39108 1-326) MLFSGSAIPLSSFCSLPEKPHTLPMKLSPAAIRSSSSSAPGSLNFDLRTYWTTLITEINQKLDEAIPVKHPAGIYEAMRYSVLAQGAKRAPPVMCVAACELFGGDRLAAFPTACALEMVHAASLIHDDLPCMDDDPVRRGKPSNHTVYGSGMAILAGDALFPLAFQHIVSHTPPDLVPRATILRLITEIARTVGSTGMAAGQYVDLEGGPFPLSFVQEKKFGAMGECSAVCGGLLGGATEDELQSLRRYGRAVGMLYQVVDDITEDKKKSYDGGAEKGMMEMAEELKEKAKKELQVFDNKYGGGDTLVPLYTFVDYAAHRHFLLPL	binds	binds

Second part, the binder after the results:

binding [1]	binding [2]	Binder
binds	–	Small GTP-binding protein (protein, UniProt Q9FNM5 1-681) MAMASAMDLSSPPTFFLSGTSTSSPSLRRLSSISVSGFRRHSNRKLQILCQATAGTEPQSGLSVSGSKLAARSGQDRLLKVPISNIRNFSIIAHIDHGKSTLADKLLQVTGTVQNRDMKEQFLDNMDLERERGITIKLQAARMRYVYEDTPFCLNLIDTPGHVDFSYEVSRSLAACEGALLVVDASQGVEAQTLANVYLALENNLEIIPVLNKIDLPGAEPEKVLREIEEVIGLDCSKAIFCSAKEGIGITEILDAIVQRIPAPLDTAGKPLRALIFDSYYDPYRGVIVYFRVIDGKVKKGDRIFFMASGKDYFADEVGVLSPNQIQVDELYAGEVGYIAASVRSVADARVGDTITHYSRKAESSLPGYEEATPMVFCGLFPVDADQFPDLRDALEKLQLNDAALKFEPETSSAMGFGFRCGFLGLLHMEIVQERLEREYNLNLITTAPSVVYRVNSVNGDTTLCSNPSRLPDPGQRKSVEEPYVKIELLTPKDYIGALMELAQERRGEFKEMKYIAENRASILYELPLAEMVGDFFDQLKSRTKGYASMEYSVIGYRESDLIKLDILINAEMVEPLSTIVHRDKAYSVGRALTQKLKELIPRQMFKVPIQACIGSKVIASEALSAIRKDVLAKCYGGDISRKKKLLKKQAAGKKRMKAIGRVDVPQEAFMAVLKLEREVL
binds	binds	MPBQ/MSBQ methyl transferase (protein, UniProt Q9LY74 1-338) MASLMLNGAITFPKGLGSPGSNLHARSIPRPTLLSVTRTSTPRLSVATRCSSSSVSSSRPSAQPRFIQHKKEAYWFYRFLSIVYDHVINPGHWTEDMRDDALEPADLSHPDMRVVDVGGGTGFTTLGIVKTVKAKNVTILDQSPHQLAKAKQKEPLKECKIVEGDAEDLPFPTDYADRYVSAGSIEYWPDPQRGIREAYRVLKIGGKACLIGPVYPTFWLSRFFSDVWMLFPKEEEYIEWFKNAGFKDVQLKRIGPKWYRGVRRHGLIMGCSVTGVKPASGDSPLQLGPKEEDVEKPVNNPFSFLGRFLLGTLAAAWFVLIPIYMWIKDQIVPKDQPI
binds	binds	Photosystem II subunit X (protein, UniProt Q9SKI3 1-116) MASTSAMSLVTPLNQTRSSPFLKPLPLKPSKALVATGGRAQRLQVKALKMDKALTGISAAALTASMVIPEIAEAAGSGISPSLKNFLLSIASGGLVLTVIIGVVVGVSNFDPVKRT
binds	binds	Photosystem I subunit D-2 (protein, UniProt Q9SA56 1-204) MATQAAGIFSPAITTTTSAVKKLHLFSSSHRPKSLSFTKTAIRAEKTESSSAAPAVKEAPVGFTPPQLDPNTPSPIFAGSTGGLLRKAQVEEFYVITWNSPKEQIFEMPTGGAAIMREGPNLLKLARKEQCLALGTRLRSKYKITYQFYRVFPNGEVQYLHPKDGVYPEKANPGREGVGLNMRSIGKNVSPIEVKFTGKQSYDL
binds	binds	Sugar transporter EDR6-like 7 (protein, UniProt P93051 1-463) MSKASDAVREPLVDKNMAGSKPDQPWMVYLSTFVAVCGSFAFGSCAGYSSPAQAAIRNDLSLTIAEFSLFGSLLTFGAMIGAITSGPIADLVGRKGAMRVSSAFCVVGWLAIIFAKGVVALDLGRLATGYGMGAFSYVVPIFIAEIAPKTFRGALTTLNQILICTGVSVSFIIGTLVTWRVLALIGIIPCAASFLGLFFIPESPRWLAKVGRDTEFEAALRKLRGKKADISEEAAEIQDYIETLERLPKAKMLDLFQRRYIRSVLIAFGLMVFQQFGGINGICFYTSSIFEQAGFPTRLGMIIYAVLQVVITALNAPIVDRAGRKPLLLVSATGLVIGCLIAAVSFYLKVHDMAHEAVPVLAVVGIMVYIGSFSAGMGAMPWVVMSEIFPINIKGVAGGMATLVNWFGAWAVSYTFNFLMSWSSYGTFLIYAAINALAIVFVIAIVPETKGKTLEQIQAIVNP
